The source of these data is patent CN111995682A.

The chains behind the UniProt entries cited, without tags or fusion partners. Where a name states a change or a piece, a line headed by the entry shows the natural chain unless it says otherwise.
UniProt O00241: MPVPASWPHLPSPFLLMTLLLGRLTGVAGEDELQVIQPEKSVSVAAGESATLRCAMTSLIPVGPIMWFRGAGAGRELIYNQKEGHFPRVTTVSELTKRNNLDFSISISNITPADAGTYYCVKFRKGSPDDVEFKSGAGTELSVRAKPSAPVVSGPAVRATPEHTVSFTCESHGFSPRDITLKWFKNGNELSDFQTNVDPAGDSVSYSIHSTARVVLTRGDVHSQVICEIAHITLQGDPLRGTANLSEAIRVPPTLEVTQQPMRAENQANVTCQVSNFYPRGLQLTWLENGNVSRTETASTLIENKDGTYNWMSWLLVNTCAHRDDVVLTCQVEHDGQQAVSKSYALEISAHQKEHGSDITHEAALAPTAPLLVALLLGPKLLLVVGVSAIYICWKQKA

These are yes or no findings as the source states them, for the method shown. Some results given as binding are weak or reduced against the parent protein; the word gives no strength.

For the assay, the target named is 人SIRPβ-ECD-His抗原 (human) (UniProt O00241). Kind of assay: indirect ELISA, human SIRPβ-ECD-His coated. In general terms: ELISA stands for enzyme-linked immunosorbent assay.

B1: Benchmark (KWAR23抗体) (antibody, human IgG4 S228P, kappa, V domains shown)
VH: EVQLQQSGAELVKPGASVKLSCTASGFNIKDYYIHWVQQRTEQGLEWIGRIDPEDGETKYAPKFQDKATITADTSSNTAYLHLSSLTSEDTAVYYCARWGAYWGQGTLVTVSA
VL: QIVLTQSPAIMSASPGEKVTLTCSASSSVSSSYLYWYQQKPGSSPKLWIYSTSNLASGVPARFSGSGSGTSYSLTISSMEAEDAASYFCHQWSSYPRTFGAGTKLELKR
In the case of B1, the binding entry is given as “binds”.
